Assay results reported in patent US20100080862A1, “COMPOSITIONS AND FOODS FOR IMPROVING LIPID METABOLISM” (Kirin Beer Kabushiki Kaisha, priority 2002, published 2010).
At least one compound was matched to its structure with a doubt left.

System: KKA^y mice (males)
Test: Ameliorative effect on insulin resistance in KKAy mice (Example 6)
Format: in vivo

CCc1ccc(CCOc2ccc(CC3SC(=O)NC3=O)cc2)nc1 (stereo not drawn) [pioglitazone]
amount of water intake per day (K 0.6 (0.6% Kettle extract), W (1.2% water soluble extract), Pio (0.05% pioglitazone) in AIN93 diet): decrease | fasting blood sugar level (week 4, K 0.6, W 1.2%, Pio 0.05% in diet, vs control group): significantly reduced | non-fasting blood sugar level (week 5, K 0.6, W 1.2%, Pio 0.05% in diet, vs control group): significantly reduced
